Literature values, collected in patent US8106214B2, “2-imino-4-(thio) oxo-5-polycyclovinylazolines for use as PI3 kinase inhibitors” (Merck Serono SA, priority 2003, dated 2012).

The chains behind the UniProt entries cited, without tags or fusion partners.
UniProt P68400, whole entry: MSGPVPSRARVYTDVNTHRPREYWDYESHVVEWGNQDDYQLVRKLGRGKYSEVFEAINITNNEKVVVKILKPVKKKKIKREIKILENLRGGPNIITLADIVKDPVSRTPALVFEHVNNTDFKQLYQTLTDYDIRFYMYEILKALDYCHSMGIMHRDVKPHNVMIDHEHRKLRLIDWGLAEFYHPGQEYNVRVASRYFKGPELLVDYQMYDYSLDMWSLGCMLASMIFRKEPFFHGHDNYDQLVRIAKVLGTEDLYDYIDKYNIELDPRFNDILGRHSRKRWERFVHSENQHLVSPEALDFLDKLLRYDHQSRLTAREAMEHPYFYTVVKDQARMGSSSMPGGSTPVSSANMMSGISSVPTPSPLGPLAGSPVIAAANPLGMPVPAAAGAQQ

Target: CK2 protein kinase (Homo sapiens, UniProt P68400)
Settings: cited from earlier work

O=c1cc(N2CCOCC2)oc2c(-c3ccccc3)cccc12 [LY294002]
IC50: 5 to 10 µM
